In paper PMC7600800:
These are yes or no findings as the source states them, for the method shown. In cells and extracts the contact can be indirect. These calls come from enrichment with a bait or labelling near it, and not all partners need be listed.

Chains of the proteins cited; added tags and fusions are not shown.
UniProt P46527: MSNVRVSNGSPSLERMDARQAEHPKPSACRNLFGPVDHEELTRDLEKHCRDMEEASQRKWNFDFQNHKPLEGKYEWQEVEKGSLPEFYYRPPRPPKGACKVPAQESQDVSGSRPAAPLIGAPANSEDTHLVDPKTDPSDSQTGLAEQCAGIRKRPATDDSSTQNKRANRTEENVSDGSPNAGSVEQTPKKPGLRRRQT
UniProt P06748: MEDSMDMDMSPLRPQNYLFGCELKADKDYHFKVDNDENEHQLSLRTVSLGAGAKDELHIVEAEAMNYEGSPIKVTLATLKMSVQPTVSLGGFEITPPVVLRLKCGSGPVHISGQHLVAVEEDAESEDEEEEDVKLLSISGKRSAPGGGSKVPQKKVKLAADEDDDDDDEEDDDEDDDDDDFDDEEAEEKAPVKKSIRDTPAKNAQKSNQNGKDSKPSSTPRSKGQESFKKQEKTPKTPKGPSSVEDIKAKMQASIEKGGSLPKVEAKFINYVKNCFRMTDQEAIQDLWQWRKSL

Biological target: HA-tagged p27 wild type (human) (UniProt P46527)
Assay: affinity purification with mass spectrometry; lysates of transfected HEK293 cells mixed with anti-HA agarose beads at 4 °C overnight, rinsed with TBS 0.1% Tween 20, eluted with 0.2 M glycine pH 2.0, SDS-PAGE bands to LC-MS; untagged p27 as negative control

binding: binds
Substance: nucleophosmin isoform 1 (NPM1), endogenous human (from UniProt P06748 1-294)
